Laboratory results from PubChem BioAssay AID624297 (National Center for Advancing Translational Sciences (NCATS), 2012).
Out of some 340,000 compounds screened, about 6,200 (1.8%) were called active. The inconclusive results got no clear call from the source; some entries with a clear call stand among them for comparison. Calls follow the shape of the dose curve; as a rule, active = well fitted activation curve with a large enough effect; inconclusive = small, poorly fitted or top-dose-only effect; inactive = no such curve, though single readings can be large or run the other way. Where the call is inconclusive, the potency comes from a doubtful curve fit.

Experiment: A quantitative high throughput screen for small molecules that induce DNA re-replication in SW480 colon adenocarcinoma cells. Also: nearly all actives have a fitted effect of over 55% in size. As to re-replication activation: % of control where 0% means no effect.
Settings: Hoechst DNA content imaging, 48 h; re-replication activation: at 46.1 µM (top of the series) unless noted
In short: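 SW480 cells exposed to compounds for 48 hr at 37 C, 5% CO2, then Hoechst-stained 40 min. Nuclear DNA content imaged by fluorescence scanning (405 nm excitation, 500-530 nm emission); re-replication scored as increased high-intensity nuclei.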
Potency is read from the fitted curve at half-maximal effect.

Structure (SMILES)	Potency	re-replication activation
COc1cccc(C(=O)NCC2CCCN2S(=O)(=O)c2ccccc2)c1 (centres undefined)	inconclusive: 1.3 µM [activator, partial curve, poor fit]	–
CCOC(=O)N1CCN(C(=O)C2CCN(S(=O)(=O)c3ccc(OC)cc3)CC2)CC1	inconclusive: 0.146 µM [activator, full curve, poor fit]	–
CCOC(=O)C1=C(O)/C(=C/c2ccc(-c3ccccc3C(=O)O)o2)SC1=Nc1ccc(C)cc1	inconclusive: 18.4 µM [activator, single point]	–
CCC(C)(C)n1nnnc1C(c1cc2ccc(C)cc2[nH]c1=O)N(Cc1cccnc1)Cc1ccco1 (centres undefined)	inconclusive: 18.4 µM [activator, single point]	–
Cc1ccc(-n2c(C)nn(Cc3ccc([N+](=O)[O-])cc3)c2=O)cc1	inactive	–
CN1/C(=C\C=C(/C#N)C(=O)Nc2ccc(Cl)cc2)C(C)(C)c2ccccc21	inactive	–
COC(=O)c1ccccc1NC(=O)CSc1nnnn1-c1ccc(C)cc1C	inconclusive: 35.5 µM [activator, partial curve, poor fit]	–
O=C(C1CCCN(S(=O)(=O)c2cccc3nonc23)C1)N1CCN(c2ccccc2Cl)CC1 (centres undefined)	inconclusive: 18.4 µM [activator, partial curve, poor fit]	–
C=CCN1/C(=C(\C#N)C2=NS(=O)(=O)c3ccccc32)N(C)c2ccccc21	inconclusive: 20.6 µM [activator, single point]	–
COc1cc(OC)c(OC)cc1CCC(C)NCCC(c1ccccc1)c1ccccc1 (centres undefined)	inactive	–
CCCCN(C(=O)COC(=O)CSc1cc(C)c2ccccc2n1)c1c(N)n(CCC)c(=O)[nH]c1=O	inactive	–
Cc1ccccc1NC(=O)CCCCC(=O)Nc1ccccc1C	inconclusive: 0.461 µM [activator, partial curve, poor fit]	–
CC1CN(C(=O)c2ccccc2Nc2ccc(SC(F)F)cc2)CC(C)O1 (centres undefined)	inconclusive: 29.1 µM [activator, single point]	–
COc1ccc(NS(=O)(=O)c2cc(N)ccc2N2CCCCC2)cc1	inactive	–
CN1CCC(N(C)S(=O)(=O)c2ccc(NC(=O)c3ccc(S(=O)(=O)N(C)C)cc3)cc2)CC1	inactive	–
COc1ccc(/C=C/C(=O)c2cc(F)ccc2OC(=O)c2ccccc2C)cc1OC	active: 1.16 µM	–
COc1ccc(C(=O)Nc2nnc(-c3cccs3)s2)cc1	inconclusive: 13 µM [activator, partial curve]	–
O=C1OCCN1C(=O)[C@H]1[C@H](c2ccc(Cl)cc2)C(c2cccc(Cl)c2)=NN1c1ccc(Br)cc1	inconclusive: 9.2 µM [activator, single point]	–
O=C1/C(=C/c2ccc([N+](=O)[O-])cc2)C=C(c2ccccc2)N1c1ccc(O)cc1	inconclusive: 29.1 µM [activator, single point]	–
CCCOc1cccc(C2C(C(=O)c3cccs3)=C(O)C(=O)N2Cc2cccnc2)c1 (centres undefined)	inconclusive: 2.31 µM [activator, partial curve, poor fit]	–
O=C(CN1C(=O)c2cccc3cccc1c23)Nc1ccccc1	inconclusive: 29.1 µM [activator, single point]	–
Cc1cnc(C(=O)Nc2cc(F)ccc2C)cn1	inactive	–

Structure (SMILES)	Potency	re-replication activation
COc1ccc(C(=O)Nc2ccncc2)c(OC)c1	inactive	–
CNC(=O)CSc1nnc(COc2ccc([N+](=O)[O-])cc2)n1C	inconclusive: 14.6 µM [activator, single point]	–
Cc1ccc(S(=O)(=O)N(CC(=O)N=Nc2c(O)[nH]c3ccccc23)c2cccc(C)c2)cc1	inconclusive: 29.1 µM [activator, single point]	–
Cc1ccc(/C=N/NC(=O)c2c(C)nc3ccc(Br)cn23)cc1	active: 1.46 µM	–
O=C(/C=C/c1ccccc1O)c1ccco1	inconclusive: 29.1 µM [activator, single point]	–
O=S(=O)(NCCN1CCOCC1)c1cc(Cl)c(Cl)cc1Cl	inactive	–
Cc1ccc(S(=O)(=O)N2c3cc(C)ccc3OCC2C(C)(C)C)cc1 (centres undefined)	inconclusive: 20.6 µM [activator, single point]	–
Cc1cccc(NS(=O)(=O)c2ccc(-c3cnc(C4CC4)o3)cc2)c1	–	inconclusive: -8.43% [activator]
O=C(COC(=O)c1cccc([N+](=O)[O-])c1)Nc1ncc(Br)s1	inconclusive: 29.1 µM [activator, single point]	–
Fc1ccc(COc2ccc(-c3nnco3)cc2)cc1	inconclusive: 14.6 µM [activator, partial curve, poor fit]	–
C/C(=N\NC(N)=O)c1cc(Cl)cc(Cl)c1O	inconclusive: 20.6 µM [activator, partial curve, poor fit]	–
C[C@H](CO)N1C[C@H](C)[C@H](CN(C)Cc2ccc(Oc3ccccc3)cc2)Oc2ccc(NC(=O)Nc3cccc4ccccc34)cc2CC1=O	inconclusive: 16.4 µM [activator, partial curve]	–
COc1cc2c(cc1OC)C(C)N(C(=O)Nc1cc(C)cc(C)c1)CC2 (centres undefined)	inconclusive: 2.31 µM [activator, partial curve, poor fit]	–
O=C(NCC1COc2ccccc2O1)c1ccc(Br)s1 (centres undefined)	inactive	–
O=C(CCSc1ccc(Cl)cc1)c1ccco1	inconclusive: 23.1 µM [activator, single point]	–
Cc1ccsc1-c1nc(CN2C[C@@H](C)O[C@@H](C)C2)c(C)o1	inconclusive: 0.146 µM [activator, full curve, poor fit]	–
C[C@H](NC(=O)[C@@H]1Cc2ccccc2CN1C(=O)OC(C)(C)C)C(=O)NC1CCCC1	inconclusive: 0.206 µM [activator, full curve, poor fit]	–
CCOc1cc(-c2cc(-c3ccc(N)cc3)nc(N)c2C#N)ccc1O	inconclusive: 20.6 µM [activator, single point]	–
COc1ccc(-c2nc(C(N)=O)c3[nH]c(=O)n(-c4cccc(Cl)c4)c3n2)cc1OC	inactive	–
OCC1(Cc2cccc(C(F)(F)F)c2)CCN(Cc2cc3ccccc3o2)CC1	inconclusive: 0.0651 µM [activator, full curve, poor fit]	–
CCCC(=O)NC(c1ccc(C)cc1)c1ccc2cccnc2c1O (centres undefined)	inconclusive: 6.51 µM [activator, partial curve, poor fit]	–
CCN(CC)CCC[C@H](C)Nc1c2ccc(Cl)cc2nc2ccc(OC)cc12	inconclusive: 18.8 µM [activator, partial curve]	–

Structure (SMILES)	Potency	re-replication activation
COc1cccc(CN(C(=O)COc2ccc(Cl)cc2)C2CCS(=O)(=O)C2)c1 (centres undefined)	inconclusive: 1.78 µM [activator, partial curve, poor fit]	–
C=CCC[C@H](Cc1ccc(F)cc1)C(=O)OC[C@@H](Cc1c[nH]c2ccccc12)NC(=O)[C@@H](CC=C)CC(=O)N(CCO)Cc1ccccc1	inconclusive: 4.61 µM [activator, partial curve, poor fit]	–
CNc1oc(/C=C/c2ccccc2)nc1C#N	inconclusive: 2.59 µM [activator, partial curve, poor fit]	–
Cc1ccc(NC(=O)c2noc3c2CCC3)cc1C	inconclusive: 11.6 µM [activator, single point]	–
Cc1c(C)c(C)c2[nH]c(-c3ccc4c(c3)OCO4)nc2c1C	inconclusive: 18.4 µM [activator, single point]	–
CCOC(=O)c1c(NC(=O)COc2ccccc2F)sc2c1CC(C)(C)NC2(C)C	inconclusive: 32.6 µM [activator, partial curve, poor fit]	–
CCN(CC)c1ccc(-n2c(C)c(C(C)=O)c(C(C)=O)c2C)cc1	inactive	–
CC1=C(C(=O)Nc2ccccn2)C(c2cccnc2)n2nnnc2N1 (centres undefined)	inconclusive: 29.1 µM [activator, single point]	–
COC(=O)CC1COc2ccccc2N1S(=O)(=O)c1ccc(OC)cc1 (centres undefined)	inconclusive: 20.6 µM [activator, single point]	–
CCC(Sc1nc(-c2cccc(OC)c2)c(C#N)c(=O)[nH]1)C(=O)Nc1nnc(C(C)C)s1 (centres undefined)	inconclusive: 16.4 µM [activator, single point]	–
NC(=O)N/N=C/c1cccc(C(F)(F)F)c1	inactive	–
O=C(NCCC1=CCCCC1)C(=O)NCC1OCCCN1S(=O)(=O)c1ccccc1 (centres undefined)	inactive	–
CC(=O)NC(CC(=O)NNC(=O)c1cc2ccccc2cc1O)c1ccccc1 (centres undefined)	inconclusive: 29.1 µM [activator, single point]	–
COc1ccccc1OCCNc1nc2c(c(=O)n(C)c(=O)n2C)n1C	inconclusive: 29.1 µM [activator, single point]	–
O=S(=O)(Nc1nc2ccccc2nc1Nc1ccc(N2CCOCC2)cc1)c1cc(Cl)ccc1Cl	inactive	–
Cc1ccc(OCC(=O)Nc2ccc(-c3nc4ncccc4o3)cc2)c(C)c1	inactive	–
OC(CSc1ccccc1)CN1CCN(c2ccc(Cl)cc2)CC1 (centres undefined)	inconclusive: 29.1 µM [activator, single point]	–
CCOCCCNC(=O)c1ccc2c(c1)ncn2-c1cccc(C)c1	inconclusive: 29.1 µM [activator, partial curve, poor fit]	–
COc1cccc(CC(=S)N2CCOCC2)c1	inconclusive: 20.6 µM [activator, single point]	–
COc1ccc(S(=O)(=O)N2CCOCC2)cc1NC(=O)CCNC(=O)c1ccc(Br)cc1	inconclusive: 7.08 µM [activator, partial curve]	–

A different layout for five compounds above.
Structure (SMILES) | Potency | re-replication activation
Cc1ccccc1NC(=O)CCCCC(=O)Nc1ccccc1C | inconclusive: 0.461 µM [activator, partial curve, poor fit] | –
CC1CN(C(=O)c2ccccc2Nc2ccc(SC(F)F)cc2)CC(C)O1 (centres undefined) | inconclusive: 29.1 µM [activator, single point] | –
COc1ccc(NS(=O)(=O)c2cc(N)ccc2N2CCCCC2)cc1 | inactive | –
CN1CCC(N(C)S(=O)(=O)c2ccc(NC(=O)c3ccc(S(=O)(=O)N(C)C)cc3)cc2)CC1 | inactive | –
COc1ccc(/C=C/C(=O)c2cc(F)ccc2OC(=O)c2ccccc2C)cc1OC | active: 1.16 µM | –
